PubChem BioAssay AID504764, Drosophila RNAi Screening Center | 2011
The deposit covers about 22,000 reagents; this is a random part of those that have a named target and a result. Of all reagents, 403 (1.9%) are marked active. 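Unnormalised raw counts per well; ratio z-scores behind the hit calls and whether each hit raises or lowers signal are not deposited.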 Reagents against one gene are numbered here. No sequences are given here. The record does not give: the amount of reagent.

- Assay: 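Genome-wide screen for regulators of Notch-driven gene expression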 (primary screen)
- Cell system: Drosophila Kc167 cells
- Reagent: long dsRNA against Drosophila genes
- Timing: about 5 days (4 days dsRNA, then 24 h after transfection)
- Challenge: transfection of constitutively active membrane-tethered Notch lacking the extracellular domain, read 24 h later
- Measured: 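Firefly luciferase from an E(spl)m3 reporter with active Notch, plus control-promoter and uninduced reporter wells for normalisation; unnormalised counts, duplicate wells a and b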
- Scale: induced reporter light, run 1, well a and induced reporter light, run 1, well b: higher = more light from the Notch target reporter with active Notch; control promoter light, run 1, well a and control promoter light, run 1, well b: higher = more light from the viral control promoter (cell number, transfection, viability); uninduced reporter light, run 1, well a: higher = more light from the Notch target reporter without active Notch
- Rule for the call: 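Hit if the duplicate-averaged log2 ratio of induced to control-promoter light gives a plate-wise z beyond ±2, or induced to uninduced beyond ±1.8; weak-control or discordant-duplicate wells dropped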
- Meaning of the calls: active = modifier hit (raised or lowered Notch signal); inactive = not a hit

{"target": "Arfrp1 (ADP-ribosylation factor related protein 1)", "dsRNA no.": 1, "induced reporter light, run 1, well a": 2.90e5, "induced reporter light, run 1, well b": 2.06e5, "control promoter light, run 1, well a": 3.02e5, "control promoter light, run 1, well b": 3.71e5, "uninduced reporter light, run 1, well a": 14940, "activity call": "inactive"}
{"target": "DCTN2-p50 (Dynactin 2, p50 subunit)", "dsRNA no.": 1, "induced reporter light, run 1, well a": 1.44e5, "induced reporter light, run 1, well b": 1.73e5, "control promoter light, run 1, well a": 1.32e5, "control promoter light, run 1, well b": 1.33e5, "uninduced reporter light, run 1, well a": 12895, "activity call": "inactive"}
{"target": "Mo25", "dsRNA no.": 1, "induced reporter light, run 1, well a": 1.37e5, "induced reporter light, run 1, well b": 1.51e5, "control promoter light, run 1, well a": 92680, "control promoter light, run 1, well b": 1.03e5, "uninduced reporter light, run 1, well a": 10120, "activity call": "inactive"}
{"target": "CG12519", "dsRNA no.": 1, "induced reporter light, run 1, well a": 2.50e5, "induced reporter light, run 1, well b": 1.27e5, "control promoter light, run 1, well a": 1.12e5, "control promoter light, run 1, well b": 85585, "uninduced reporter light, run 1, well a": 9315, "activity call": "inactive"}
{"target": "CG12519", "dsRNA no.": 2, "activity call": "inactive"}
{"target": "Cyp313a3 (Cytochrome P450 313a3)", "dsRNA no.": 1, "induced reporter light, run 1, well a": 84200, "induced reporter light, run 1, well b": 79070, "control promoter light, run 1, well a": 84725, "control promoter light, run 1, well b": 58345, "uninduced reporter light, run 1, well a": 5730, "activity call": "inactive"}

The list goes on, starting with the last 2 of the part before.
{"target": "CG12519", "dsRNA no.": 2, "activity call": "inactive"}
{"target": "Cyp313a3 (Cytochrome P450 313a3)", "dsRNA no.": 1, "induced reporter light, run 1, well a": 84200, "induced reporter light, run 1, well b": 79070, "control promoter light, run 1, well a": 84725, "control promoter light, run 1, well b": 58345, "uninduced reporter light, run 1, well a": 5730, "activity call": "inactive"}
{"target": "Mef2 (Myocyte enhancer factor 2)", "dsRNA no.": 1, "induced reporter light, run 1, well a": 1.39e5, "induced reporter light, run 1, well b": 1.16e5, "control promoter light, run 1, well a": 80170, "control promoter light, run 1, well b": 78580, "uninduced reporter light, run 1, well a": 11750, "activity call": "inactive"}
{"target": "CG6654", "dsRNA no.": 1, "induced reporter light, run 1, well a": 1.16e5, "induced reporter light, run 1, well b": 1.14e5, "control promoter light, run 1, well a": 1.10e5, "control promoter light, run 1, well b": 1.05e5, "uninduced reporter light, run 1, well a": 11725, "activity call": "inactive"}
{"target": "Tango14 (Transport and Golgi organization 14)", "dsRNA no.": 1, "induced reporter light, run 1, well a": 91680, "induced reporter light, run 1, well b": 78180, "control promoter light, run 1, well a": 81040, "control promoter light, run 1, well b": 58875, "uninduced reporter light, run 1, well a": 5640, "activity call": "inactive"}
{"target": "CG6675", "dsRNA no.": 1, "induced reporter light, run 1, well a": 46455, "induced reporter light, run 1, well b": 48670, "control promoter light, run 1, well a": 49300, "control promoter light, run 1, well b": 35555, "uninduced reporter light, run 1, well a": 2765, "activity call": "inactive"}
{"target": "sgg (shaggy)", "dsRNA no.": 1, "induced reporter light, run 1, well a": 56480, "induced reporter light, run 1, well b": 61525, "control promoter light, run 1, well a": 84835, "control promoter light, run 1, well b": 92145, "uninduced reporter light, run 1, well a": 4690, "activity call": "inactive"}
{"target": "sgg (shaggy)", "dsRNA no.": 2, "induced reporter light, run 1, well a": 56380, "induced reporter light, run 1, well b": 65740, "control promoter light, run 1, well a": 89455, "control promoter light, run 1, well b": 90525, "uninduced reporter light, run 1, well a": 4685, "activity call": "inactive"}
{"target": "sgg (shaggy)", "dsRNA no.": 3, "induced reporter light, run 1, well a": 1.42e5, "induced reporter light, run 1, well b": 1.15e5, "control promoter light, run 1, well a": 2.01e5, "control promoter light, run 1, well b": 1.95e5, "uninduced reporter light, run 1, well a": 6540, "activity call": "inactive"}
